A short description of data set [1]: Apparent permeability in MDCK cells. As to conditions: dog.
Data set [2] in a line: Effective permeability across human intestinal membrane by Ussing chamber technique.
A short description of data set [3]: Permeability in human Caco2 cells. The note with it: Caco-2. A general note: Passage across Caco-2 layers is used to estimate intestinal permeability.

The Papp is the rate of passage across a membrane or cell layer, normalised by area and donor concentration.

For `COc1cc2c(cc1OC)C(=O)C(CC1CCN(Cc3ccccc3)CC1)C2` (stereo not drawn) [DONEPEZIL], the Papp in data set [1] was 30.6 ×10⁻⁶ cm/s; in data set [2], 669 ×10⁻⁶ cm/s; in data set [3], 5.55 ×10⁻⁶ cm/s.

The values above are taken from ChEMBL document CHEMBL3286171 (Eur J Med Chem, 2014).
